Assay: Expression in stable Lonza pools (shake flask fed batch overgrow)
Settings: stable pool

B1: 2D10 IgG4PE: fully human anti-human OX40L monoclonal antibody, human IgG4-PE; VH Seq ID No:34, VL Seq ID No:48; 2D10-1 to -4 are stable pools (antibody, V domains shown)
VH: EVQLVESGGGLVQPGGSLRLSCAASGFTFSNYAMNWVRQAPGKGLEWVSTISGSGGATRYADSVKGRFTISRDNSRNTVYLQMNSLRVEDTAVFYCTKDRLIMATVRGPYYYGMDVWGQGTTVTVSS
VL: DIQMTQSPSSLSASVGDRVTITCRASQSISSYLNWYQQKPGKAPNLLIYAASSLQSGVPSRFSGSGSETDFTLTISSLQPEDFATYYCQQSHSVSFTFGPGTKVDIK
modifications: human IgG4-PE constant regions; 02D10 - VH Amino Acid Sequence; 02D10 - VL Amino Acid Sequence
Concentration, Day 7 (Day 7): 261 mg/L | Concentration, Day 7 (Day 7, listed as 2D10-2): 245 mg/L | Concentration, Day 7 (Day 7, listed as 2D10-3): 317 mg/L | Concentration, Day 7 (Day 7, listed as 2D10-4): 372 mg/L | Concentration, Day 8 (Day 8): 492 mg/L | Concentration, Day 8 (Day 8, listed as 2D10-2): 461 mg/L | Concentration, Day 8 (Day 8, listed as 2D10-3): 528 mg/L | Concentration, Day 8 (Day 8, listed as 2D10-4): 677 mg/L | Concentration, Day 9 (Day 9): 681 mg/L | Concentration, Day 9 (Day 9, listed as 2D10-2): 665 mg/L | Concentration, Day 9 (Day 9, listed as 2D10-3): 731 mg/L | Concentration, Day 9 (Day 9, listed as 2D10-4): 785 mg/L | Concentration, Day 10 (Day 10): 993 mg/L | Concentration, Day 10 (Day 10, listed as 2D10-2): 983 mg/L | Concentration, Day 10 (Day 10, listed as 2D10-3): 1163 mg/L | Concentration, Day 10 (Day 10, listed as 2D10-4): 1286 mg/L | Concentration, Day 11 (Day 11): 1157 mg/L | Concentration, Day 11 (Day 11, listed as 2D10-2): 1127 mg/L | Concentration, Day 11 (Day 11, listed as 2D10-3): 1367 mg/L | Concentration, Day 11 (Day 11, listed as 2D10-4): 1350 mg/L | Concentration, Day 12 (Day 12): 1590 mg/L | Concentration, Day 12 (Day 12, listed as 2D10-2): 1485 mg/L | Concentration, Day 12 (Day 12, listed as 2D10-3): 1785 mg/L | Concentration, Day 12 (Day 12, listed as 2D10-4): 1935 mg/L | Concentration, Day 13 (Day 13): 1530 mg/L | Concentration, Day 13 (Day 13, listed as 2D10-2): 2025 mg/L | Concentration, Day 13 (Day 13, listed as 2D10-3): 1905 mg/L | Concentration, Day 13 (Day 13, listed as 2D10-4): 1965 mg/L | Concentration, Day 14 (Day 14): 1575 mg/L | Concentration, Day 14 (Day 14, listed as 2D10-2): 1995 mg/L | Concentration, Day 14 (Day 14, listed as 2D10-3): 1860 mg/L | Concentration, Day 14 (Day 14, listed as 2D10-4): 1800 mg/L

From patent US20240122985A1, “ANTIBODIES, COMBINATIONS COMPRISING ANTIBODIES, BIOMARKERS, USES & METHODS” (KYMAB LIMITED, priority 2016, published 2024)
